Results taken from patent publication US20190269801A1 (CEDARS-SINAI MEDICAL CENTER, priority 2016, published 2019).
Read-outs that look alike come from different tables or passages of the source.

Key:
Resistant C4-2B PC cells = experiment: Growth inhibition of AA/EZ resistant C4-2B PC cells cultured as 2D monolayer; format: cell-based; conditions: Homo sapiens
Naive C4-2B PC cells = experiment: Growth inhibition of naive C4-2B PC cells cultured as 2D monolayer; conditions: Homo sapiens

SMILES: CNC(=O)c1ccc(N2C(=S)N(c3ccc(C#N)c(C(F)(F)F)c3)C(=O)C2(C)C)cc1F [EZ, enzalutamide]
- IC50 (Resistant C4-2B PC cells; NIR-SM 0 μM): 10.7 µM
- IC50 (Resistant C4-2B PC cells; NIR-SM 0.25 μM): 1.56 µM
- IC50 (Naive C4-2B PC cells; read-out: EZ IC50, Naive C4-2B, 2D monolayer, NIR-SM 0 μM): 7.69 µM
- IC50 (Naive C4-2B PC cells; read-out: EZ IC50, Naive C4-2B, 2D monolayer, NIR-SM 0.25 μM): 1.5 µM
